Where two headings read alike, the source gives them in different places. These are yes or no findings as the source states them, for the method shown. For some of these results: In cells and extracts the contact can be indirect. Some results given as binding are weak or reduced against the parent protein; the word gives no strength. For some of these results: Tags and fused reporters may be left off the sequences shown.
Assays:
[1] = biological target: T1, 6XHis-GST-ATG8A (Arabidopsis thaliana) (UniProt Q8LEM4); experiment: pull-down
T1 sequence: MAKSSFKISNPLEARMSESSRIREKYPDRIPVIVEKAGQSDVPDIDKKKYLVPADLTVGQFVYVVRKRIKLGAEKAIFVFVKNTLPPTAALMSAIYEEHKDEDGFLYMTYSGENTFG

By UniProt entry, the sequences of proteins in these tests, tags left out.
UniProt P47996: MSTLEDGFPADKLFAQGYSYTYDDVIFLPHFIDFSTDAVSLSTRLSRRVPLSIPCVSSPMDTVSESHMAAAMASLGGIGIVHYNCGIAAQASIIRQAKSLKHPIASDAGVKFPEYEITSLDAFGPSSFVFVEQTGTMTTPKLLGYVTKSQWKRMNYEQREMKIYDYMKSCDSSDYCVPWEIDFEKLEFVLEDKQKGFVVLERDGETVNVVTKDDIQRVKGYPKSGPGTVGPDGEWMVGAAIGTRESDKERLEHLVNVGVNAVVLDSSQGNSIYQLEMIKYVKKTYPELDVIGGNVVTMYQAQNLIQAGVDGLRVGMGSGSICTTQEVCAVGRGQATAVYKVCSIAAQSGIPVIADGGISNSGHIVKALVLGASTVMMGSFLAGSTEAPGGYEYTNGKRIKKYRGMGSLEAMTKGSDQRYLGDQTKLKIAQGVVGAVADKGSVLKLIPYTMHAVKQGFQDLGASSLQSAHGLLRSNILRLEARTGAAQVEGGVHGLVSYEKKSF

[2] = biological target: T2, mCherry-ATG8A (Arabidopsis thaliana) (UniProt Q8LEM4); experiment: co-IP
T2 sequence: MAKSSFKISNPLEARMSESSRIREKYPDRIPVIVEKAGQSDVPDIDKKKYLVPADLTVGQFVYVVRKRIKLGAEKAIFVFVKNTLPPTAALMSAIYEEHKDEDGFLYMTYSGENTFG

[3] = biological target: T1, 6XHis-GST-ATG8A (Arabidopsis thaliana); experiment: pull-down; remark: listed apart in the source

His-MBP-IMPDH1 (from UniProt P47996 1-503) (enzyme)
binding [1]: binds

IMPDH1-Clover (from UniProt P47996 1-503) (enzyme)
binding [2]: binds

NIT1^AIM1m (from UniProt P32961 1-346) (enzyme)
binding [1]: binds

B1: NIT1 WT (purified recombinant AtNIT1) (enzyme)
chain: MSSTKDMSTVQNATPFNGVAPSTTVRVTIVQSSTVYNDTPATIDKAEKYIVEAASKGAELVLFPEGFIGGYPRGFRFGLAVGVHNEEGRDEFRKYHASAIHVPGPEVARLADVARKNHVYLVMGAIEKEGYTLYCTVLFFSPQGQFLGKHRKLMPTSLERCIWGQGDGSTIPVYDTPIGKLGAAICWENRMPLYRTALYAKGIELYCAPTADGSKEWQSSMLHIAIEGGCFVLSACQFCQRKHFPDHPDYLFTDWYDDKEHDSIVSQGGSVIISPLGQVLAGPNFESEGLVTADIDLGDIARAKLYFDSVGHYSRPDVLHLTVNEHPRKSVTFVTKVEKAEDDSNK
modifications: RED-NHS 2nd Generation dye (in the MST only)
binding [3]: binds

Reference: article doi:10.1101/2024.05.06.590709 (bioRxiv, 2024)
